Reference: US20030148404A1, “Peptides and substances, methods and devices using same for diagnosing and treating neurodegenerative disorders” (Ramot University Authority For Applied Research & …, priority 2000, published 2003)
Values joined by “and” are separate entries in the source; they are usually repeats but may differ in a detail not shown here. Identical values can stand only once.

Assays:
[1] = tested on: anti-NF—H antibodies; assay: ELISA comparison of AD and NC sera with peptides; separation algorithms and grouping of peptides into FACTs; assay type: binding, human; conditions: for FACT1: similarity of the peptide's profile of signals of 96 serum samples (48 AD, 48 NC) to the ideal peptide profile (=1) of group FACT1; for FACT2: similarity of the peptide's profile of signals of 96 serum samples (48 AD, 48 NC) to the ideal peptide profile (=1) of group FACT2; for FACT3: similarity of the peptide's profile of signals of 96 serum samples (48 AD, 48 NC) to the ideal peptide profile (=1) of group FACT3; for FACT4: similarity of the peptide's profile of signals of 96 serum samples (48 AD, 48 NC) to the ideal peptide profile (=1) of group FACT4
Protocol: A Streptavidin stock solution (2 mg/ml Streptavidin prepared in purified water, aliquoted, and stored at −20° C.) was diluted 1:400 in ddH2O and a 100 μl aliquot was added to each well of a multiwell plate (96 well C-shaped microplates). The plates were incubated at 37° C. overnight until the liquid was entirely evaporated and stored until use at 4° C. in plastic bags containing a desiccating material. Such coated plates retained their activity for at least few days. The plates were washed 4 times by immersing in TBST. 200 μl of blocking solution were added to each of the wells. The plates were then incubated for 1 hour at room temperature. 100 μl of the biotinylated peptide (1 μg/ml in TBST) were added to each of the wells with the exception of the control wells. The plates were then incubated for 1 hour at room temperature.
Following incubation, the plates were washed in TBST 4 times as above. A 100 μl aliquot of serum which was diluted in a dilution buffer was added to each well and the plates were incubated for 1 hour at room temperature.
Following this incubation the wells were washed in TBST 4 times as above. A 100 μl aliquot of a secondary antibody (Goat anti-human IgG Horse radish peroxidase conjugate) which was diluted 1:2000 in dilution buffer was added to each well and the plates were incubated for 1 hour at room temperature.
The wells were then washed in TBST 4 times as above followed by two washes in TBS (TBST w/o Tween-20).
A 100 μl aliquot of the substrate solution was added to each well and the plates were incubated at room temperature.
OD was measured at 450 nm and 620 nm every minute over a period of 10-15 minutes.
Employing the above optimized parameters, eight AD and eight NC sera were analyzed using peptide 3M (SEQ ID NO:31). The experiment was repeated over a period of four days, employing four different plates each day. Two plates were preblocked with Gelatin, while two were not. In one experiment chloroform treated serum was analyzed on two additional plates. Three AD sera consistently gave rise to high signals in all experiments. One AD serum caused high signals in 10 out of the 13 plates and four AD sera were consistently negative. One NC sera caused high signals in some of the plates in the experiments conducted on all four days. Two additional NC sera gave rise to high signals in some of the plates in the experiments conducted on three of the four days. It was observed that when plates were coated with Streptavidin one day prior to the experiment, in contrast to the plates coated in advance and stored at 4° C. for 1-2 weeks, produced much better inter-plate reproducibility (not shown). The reproducibility of the experiments was assessed by averaging the rank-order numbers of each sample in every experiment (Table 3).
Sample numbers 862, 871, 861, and 874, acquired from AD patients, are separated by more than two standard deviation points from sample number 465. Sample number 485 is separated by one standard deviation point from sample number 465. […] However, by combining several peptides both the specificity and sensitivity can be improved.
It will be appreciated that the protocol optimization was done with one single peptide. It was shown that the system is sensitive to changes in peptide concentration, serum concentration and secondary antibody concentration, as a result, optimal conditions were chosen. A preliminary study on a limited number of AD and NC samples gave a sensitivity of 50% ( 4/8) and specificity of 87% (⅞). Using a combination of several peptides will increase both the sensitivity and accuracy. As is shown below, using a combination of several peptides increases both the sensitivity and accuracy.
A series of experiments were performed in which 48 AD and 48 NC were analyzed by the use of 17 different peptides (INO; 2L; 2LR; 3NO; 3L; 3M; 3R; 3LM; 3LR; 4LM; 4MR; 4LMR; 5LM; 6LR; 7MR; 8LMR and 8LMR-V). Two different algorithms were developed to analyze the data. […]

[2] = tested on: anti-NF—H antibodies; assay: Streptavidin-biotin ELISA: serum IgG binding to biotinylated NF-H peptide (protocol optimisation, pooled AD serum); parameters: species or system human
Protocol: Solutions and Materials: Tris Buffered Saline (TBS): 50 mM Tris-HCl, pH 7.4 (Tris (Sigma, T-1378); HCl (Merck 1.00319.1000)) 200 mM NaCl (Merck, 1.06404.1000). TBST: 0.05% (w/v) Tween-20 (Sigma, P-7949) in TBS. Phosphate Buffered Saline (PBS): 0.1 M phosphate buffer, pH 7.2 (Sodium phosphate, monobasic (Sigma. S-8182) and Sodium phosphate, dibasic (Sigma, S-7907)). 200 mM NaCl (Merck, 1.06404.1000). PBST: 0.05% (w/v) Tween-20 (Sigma, P-7949) in PBS. Dilution/Blocking buffer: 0.5% Gelatin (Difco, 0143-17-9) in TBST. Streptavidin stock solution: 2 mg/ml Streptavidin (Sigma, S4762) in purified water. Aliquoted and kept at −20° C., this solution is stable indefinitely. Multiwell Plates: Nunc Maxisorp (Cat. No. 442404) 96 well C-shaped microplates. Secondary antibody: Goat anti-human IgG Horse radish peroxidase conjugate (Jackson, 109-035-088). Substrate solution: 1 mg/ml OPD (Sigma, P-8412)+0.005% H2O2 (Merck, 1.07210.0250) in […] Sodium Citrate buffer, pH 5 (Merck, 1.00 244.1000).
A Streptavidin stock solution (2 mg/ml Streptavidin prepared in purified water, aliquoted, and stored at −20° C.) was diluted 1:400 in ddH2O and a 100 μl aliquot was added to each well of a multiwell plate (96 well C-shaped microplates). […]
OD was measured at 450 nm and 620 nm every minute over a period of 10-15 minutes. […]

Row | Sequence | FACT1 [1] | FACT2 [1] | FACT3 [1] | FACT4 [1] | Signal to noise ratio (maximal) ([2]; serum dilution 1:20, pooled AD serum) | Signal to noise ratio ([2]; serum dilution 1:160, pooled AD serum)
1 | A K S P V K E E A K S(PO3H) P E K A K S(PO3H) P-OH (AKSPVKEEAKSPEKAKSP; phosphoserines) [8MR] | 0.7401 | −0.04212 | 0.2388 | 0.1709 | – | –
2 | A K S(PO3H) P A E A K S P E K A K S P-OH (AKSPAEAKSPEKAKSP; phosphoserine) [2L] | 0.4415 | 0.7005 | 0.208 | 0.1125 | – | –
3 | A K S(PO3H) P A E A K S P V K E E A K S(PO3H) P-OH (AKSPAEAKSPVKEEAKSP; phosphoserines) [3LR] | 0.8566 | 0.2849 | 0.08781 | 0.03219 | – | –
4 | A K S(PO3H) P A E A K S(PO3H) P V K E E A K S P-OH (AKSPAEAKSPVKEEAKSP; phosphoserines) [3LM] | – | 0.4503 and 0.8326 | – | – | – | –
5 | A K S(PO3H) P E K A K S(PO3H) P E K A K S P-OH (AKSPEKAKSPEKAKSP; phosphoserines) [5LM] | 0.3837 | 0.6661 | 0.3099 | −0.1071 | – | –
6 | A K S(PO3H) P E K A K S(PO3H) P A E A K S P-OH (AKSPEKAKSPAEAKSP; phosphoserines) [4LM] | 0.178 | 0.1252 | 0.8196 | 0.09459 | – | –
7 | A K S(PO3H) P E K A K S P V K E E A K S(PO3H) P-OH (AKSPEKAKSPVKEEAKSP; phosphoserines) [6LR] | 0.6779 | 0.2428 | −0.03787 | −0.2026 | – | –
8 | A K S P V K E E A K S(PO3H) P A E A K S(PO3H) P-OH (AKSPVKEEAKSPAEAKSP; phosphoserines) [7MR] | 0.7754 | 0.1265 | 0.07956 | 0.1147 | – | –
9 | A K S(PO3H) P V K E E A K S(PO3H) P E K A K S(PO3H) P-OH (AKSPVKEEAKSPEKAKSP; phosphoserines) [8LMR] | 0.8913 | 0.2798 | 0.1051 | 0.05595 | – | –
10 | A K S(PO3H) P A E A K S P V K E E A K S P-OH (AKSPAEAKSPVKEEAKSP; phosphoserine) [3L] | 0.1423 | 0.6955 | 0.2727 | −0.2767 | – | –
11 | A K S(PO3H) P A E A K S P E K A K S(PO3H) P-OH (AKSPAEAKSPEKAKSP; phosphoserines) [2LR] | 0.8206 | −0.05813 | 0.07225 | −0.04948 | – | –
12 | A K S(PO3H) P E K A K S(PO3H) P A E A K S(PO3H) P-OH (AKSPEKAKSPAEAKSP; phosphoserines) [4LMR] | 0.4508 | 0.491 | 0.2495 | −0.04654 | – | –
13 | A K S P A E A K S(PO3H) P V K E E A K S P-OH (AKSPAEAKSPVKEEAKSP; phosphoserine) [3M] | 0.00926 | 0.6937 | −0.05907 | 0.2126 | ~3 | below 2
14 | A K S P E K A K S(PO3H) P A E A K S(PO3H) P-OH (AKSPEKAKSPAEAKSP; phosphoserines) [4MR] | 0.8882 | 0.2978 | 02125 | 0.01311 | – | –
15 | A K S(PO3H) P V K E E A K S(PO3H) P E K A K S(PO3H) P V-NH2 (AKSPVKEEAKSPEKAKSPV; phosphoserines; C-terminal amide) [8LMR-V] | 0.07948 | 0.02508 | 0.00015 | 0.934 | – | –
